The text below walks through data of patent US20250145673A1.

Amino acid sequences for entries named in this document (tags omitted). Residues count along the entry.
UniProt P01024, residues 23-1663: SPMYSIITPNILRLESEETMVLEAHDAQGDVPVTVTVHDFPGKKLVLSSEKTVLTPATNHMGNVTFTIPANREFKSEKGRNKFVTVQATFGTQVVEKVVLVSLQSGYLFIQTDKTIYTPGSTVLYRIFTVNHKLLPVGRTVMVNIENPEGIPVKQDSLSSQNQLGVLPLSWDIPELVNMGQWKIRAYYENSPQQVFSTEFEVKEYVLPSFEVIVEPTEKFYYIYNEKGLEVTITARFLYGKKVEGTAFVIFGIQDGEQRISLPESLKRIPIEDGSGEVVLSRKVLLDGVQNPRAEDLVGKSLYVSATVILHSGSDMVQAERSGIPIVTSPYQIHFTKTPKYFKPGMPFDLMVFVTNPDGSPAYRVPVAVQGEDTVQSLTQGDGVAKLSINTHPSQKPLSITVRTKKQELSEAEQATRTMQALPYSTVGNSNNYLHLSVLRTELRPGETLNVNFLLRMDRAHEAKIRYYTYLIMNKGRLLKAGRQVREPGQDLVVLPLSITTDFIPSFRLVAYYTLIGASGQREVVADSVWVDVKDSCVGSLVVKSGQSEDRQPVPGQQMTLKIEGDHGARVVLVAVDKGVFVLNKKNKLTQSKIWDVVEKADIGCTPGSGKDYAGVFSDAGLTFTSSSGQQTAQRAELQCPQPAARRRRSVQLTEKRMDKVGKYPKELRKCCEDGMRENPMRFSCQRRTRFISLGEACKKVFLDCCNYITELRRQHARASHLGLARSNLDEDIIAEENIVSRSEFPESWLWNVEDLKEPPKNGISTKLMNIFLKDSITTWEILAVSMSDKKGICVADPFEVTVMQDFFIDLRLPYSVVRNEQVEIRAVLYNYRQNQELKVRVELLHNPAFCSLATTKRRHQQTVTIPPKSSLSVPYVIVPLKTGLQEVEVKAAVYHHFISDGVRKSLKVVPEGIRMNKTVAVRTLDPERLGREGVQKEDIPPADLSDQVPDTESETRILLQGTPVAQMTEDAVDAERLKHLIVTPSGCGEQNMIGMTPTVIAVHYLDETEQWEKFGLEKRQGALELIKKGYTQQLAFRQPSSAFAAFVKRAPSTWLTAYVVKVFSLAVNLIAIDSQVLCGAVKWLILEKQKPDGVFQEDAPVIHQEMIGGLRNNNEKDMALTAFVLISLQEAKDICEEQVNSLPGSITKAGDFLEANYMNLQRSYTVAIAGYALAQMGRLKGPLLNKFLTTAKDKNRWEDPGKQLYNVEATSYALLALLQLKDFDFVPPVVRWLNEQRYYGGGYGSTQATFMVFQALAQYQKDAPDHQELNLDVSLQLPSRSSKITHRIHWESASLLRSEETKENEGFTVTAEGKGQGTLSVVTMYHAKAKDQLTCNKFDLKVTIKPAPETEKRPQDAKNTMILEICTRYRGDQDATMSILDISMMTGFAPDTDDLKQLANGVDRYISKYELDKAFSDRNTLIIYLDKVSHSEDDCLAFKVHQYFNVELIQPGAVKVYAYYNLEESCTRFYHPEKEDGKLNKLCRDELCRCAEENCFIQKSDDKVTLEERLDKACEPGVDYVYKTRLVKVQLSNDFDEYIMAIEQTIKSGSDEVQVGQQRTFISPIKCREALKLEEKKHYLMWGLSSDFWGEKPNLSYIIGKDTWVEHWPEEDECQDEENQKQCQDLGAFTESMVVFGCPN

In experiment [1] the target is complement component 3 (C3) (UniProt P01024). Briefly: ITC and SPR (Table 20).
For experiment [2] the target is unchanged. Briefly: SPR, single cycle kinetics, 1:1 Langmuir fit. A general note: In SPR one partner is held on a chip, and binding of the other changes the refractive index at the surface.
Experiment [3] has the same target. Description: SPR, single cycle kinetics.

Where a chain is given by its changes, count along the chain named. These are yes or no findings as the source states them, for the method shown. Some results given as binding are weak or reduced against the parent protein; the word gives no strength.

B1: polypeptide having the amino acid sequence of SEQ ID NO: 27 (designed binder)
chain: MVKVKFEATGEEKEVDTSKIYQVYRSGKEVLFTYDDNGKTGWGYVSEKDAPKELLDMLARAEREK
Regarding B1, the binding entry in experiment [1], in experiment [2] and in experiment [3] was “binds” each time.

B2: polypeptide comprising the amino acid sequence of SEQ ID NO: 33 (designed binder)
chain: MVKVKFAATGEEKEVETSKIANVYRVGKDVLFSYDDQGKIGWGYVSEKDAPKELLDLLARAEREK
As to B2, the binding result in experiment [1] and in experiment [2] was “binds” in each case.

B3: polypeptide comprising the amino acid sequence of SEQ ID NO: 34 (designed binder)
chain: B2 chain with A7D, A21S, N22A, V26T
As to B3, the binding result in experiment [1] and in experiment [2] was “binds” throughout.
